Patent US9517222B2, “Method for the treatment of senile dementia of the Alzheimer's type” (Phenomenome Discoveries Inc., priority 2007, dated 2016)
A unit is not stated for every read-out.

Assays:
[1] = Serum ethanolamine phospholipid levels in human cohorts (dementia severity, post-mortem pathology, age) by flow-injection MS/MS
[2] = Serum ethanolamine phospholipid ratios to PtdEt 16:0/18:0 (M01) in human cohorts
[3] = serum, females, post mortem SDAT
[4] = serum, females, post mortem control

CC/C=C\C/C=C\C/C=C\C/C=C\C/C=C\C/C=C\CCC(=O)OC(CO/C=C\CCCCCCCCCCCCCCCC)COP(=O)(O)OCCN (centres unmarked) [Metabolite M24, Plasmenyl 18:0/22:6]
Ratio of serum levels ([1]; AD, All to CN, Male): 0.680 | Ratio of serum levels ([1]; ADAS 5-19 to CN, Male): 0.777 | Ratio of serum levels ([1]; ADAS 20-39 to 5-19, Male): 0.833 | Ratio of serum levels ([1]; ADAS 20-39 to CN, Male): 0.647 | Ratio of serum levels ([1]; ADAS 40-70 to 5-19, Male): 0.674 | Ratio of serum levels ([1]; ADAS 40-70 to 20-39, Male): 0.810 | Ratio of serum levels ([1]; ADAS 40-70 to CN, Male): 0.524 | Serum level, Mean ([1]; Cognitive Normal, Female): 0.103 | Average serum level, Mean ([1]; Cognitive Normal, Male): 0.116 | Serum level, Mean ([1]; Post Mortem Ctl, Male): 0.029 | Serum level, Mean ([1]; Post Mortem SDAT Male): 0.013 | Ratio of serum levels ([1]; Post mortem SDAT vs Control, Male): 0.448 | Serum level, Mean ([1]; SDAT, ADAS 5-19, Female): 0.079 | Average serum level, Mean ([1]; SDAT, ADAS 5-19, Male): 0.090 | Serum level, Mean ([1]; SDAT, ADAS 20-39, Female): 0.073 | Average serum level, Mean ([1]; SDAT, ADAS 20-39, Male): 0.075 | Serum level, Mean ([1]; SDAT, ADAS 40-70, Female): 0.067 | Average serum level, Mean ([1]; SDAT, ADAS 40-70, Male): 0.061 | Serum level, Mean ([1]; SDAT_all, Female): 0.073 | Average serum level, Mean ([1]; SDAT_all, Male): 0.079 | Ratio, ADAS 5-19 to CN, Female ([1]; serum level ratio, females, ADAS 5-19 vs CN): 0.768 | Ratio, ADAS 20-39 to 5-19, Female ([1]; serum level ratio, females, ADAS 20-39 vs ADAS 5-19): 0.928 | Ratio, ADAS 20-39 to CN, Female ([1]; serum level ratio, females, ADAS 20-39 vs CN): 0.713 | Ratio, ADAS 40-70 to 5-19, Female ([1]; serum level ratio, females, ADAS 40-70 vs ADAS 5-19): 0.852 | Ratio, ADAS 40-70 to 20-39, Female ([1]; serum level ratio, females, ADAS 40-70 vs ADAS 20-39): 0.918 | Ratio, ADAS 40-70 to CN, Female ([1]; serum level ratio, females, ADAS 40-70 vs CN): 0.654 | Ratio, 50-59 vs. 40-49, Female ([1]; serum level ratio, females, age 50-59 vs 40-49): 0.957 | Ratio, 60-69 vs. 40-49, Female ([1]; serum level ratio, females, age 60-69 vs 40-49): 0.871 | Ratio, 70+ vs. 40-49, Female ([1]; serum level ratio, females, age 70+ vs 40-49): 1.040 | Ratio, AD, All to CN, Female ([1]; serum level ratio, females, all AD vs cognitively normal): 0.708 | Ratio, Autopsy AD vs. Control, Female ([1]; serum level ratio, females, autopsy AD vs control): 0.496 | Ratio, 50-59 vs. 40-49, Male ([1]; serum level ratio, males, age 50-59 vs 40-49): 1.365 | Ratio, 60-69 vs. 40-49, Male ([1]; serum level ratio, males, age 60-69 vs 40-49): 1.403 | Ratio, 70+ vs. 40-49, Male ([1]; serum level ratio, males, age 70+ vs 40-49): 1.642 | Mean serum level, Age Ctl, 30-39, Female ([1]; serum, females, age 30-39): 0.102 | Mean serum level, Age Ctl, 40-49, Female ([1]; serum, females, age 40-49): 0.093 | Mean serum level, Age Ctl, 50-59, Female ([1]; serum, females, age 50-59): 0.089 | Mean serum level, Age Ctl, 60-69, Female ([1]; serum, females, age 60-69): 0.081 | Mean serum level, Age Ctl, 70+, Female ([1]; serum, females, age 70+): 0.096 | Mean serum level, Post Mortem SDAT, Female [1, 3]: 0.018 | Mean serum level, Post Mortem Ctl, Female [1, 4]: 0.035 | Mean serum level, Age Ctl, 30-39, Male ([1]; serum, males, age 30-39): 0.077 | Mean serum level, Age Ctl, 40-49, Male ([1]; serum, males, age 40-49): 0.063 | Mean serum level, Age Ctl, 50-59, Male ([1]; serum, males, age 50-59): 0.086 | Mean serum level, Age Ctl, 60-69, Male ([1]; serum, males, age 60-69): 0.088 | Mean serum level, Age Ctl, 70+, Male ([1]; serum, males, age 70+): 0.103 | Ratio of ethanolamine phospholipid ratios to M01 between cohorts ([2]; AD, All to CN, Male): 0.665 | Ratio of ethanolamine phospholipid ratios to M01 between cohorts ([2]; ADAS 5-19 to CN, Male): 0.763 | Ratio of ethanolamine phospholipid ratios to M01 between cohorts ([2]; ADAS 20-39 to CN, Male): 0.641 | Ratio of ethanolamine phospholipid ratios to M01 between cohorts ([2]; ADAS 40-70 to CN, Male): 0.533 | Average serum ethanolamine phospholipid ratio to M01, Mean ([2]; Cognitive Normal, Male, serum): 1.010 | Average serum ethanolamine phospholipid ratio to M01, Mean ([2]; SDAT, ADAS 5-19, Male, serum): 0.770 | Average serum ethanolamine phospholipid ratio to M01, Mean ([2]; SDAT, ADAS 20-39, Male, serum): 0.647 | Average serum ethanolamine phospholipid ratio to M01, Mean ([2]; SDAT, ADAS 40-70, Male, serum): 0.539 | Average serum ethanolamine phospholipid ratio to M01, Mean ([2]; SDAT_all, Male, serum): 0.672 | Ethanolamine Phospholipid Ratio to M01, Mean, Age Ctl, 30-39, Female ([2]; human serum, females aged 30-39): 0.955 | Ethanolamine Phospholipid Ratio to M01, Mean, Age Ctl, 40-49, Female ([2]; human serum, females aged 40-49): 0.834 | Ethanolamine Phospholipid Ratio to M01, Mean, Age Ctl, 50-59, Female ([2]; human serum, females aged 50-59): 0.882 | Ratio of Ethanolamine Phospholipid Ratio to M01, 50-59 vs. 40-49, Female ([2]; human serum, females aged 50-59 vs. females aged 40-49): 1.058 | Ethanolamine Phospholipid Ratio to M01, Mean, Age Ctl, 60-69, Female ([2]; human serum, females aged 60-69): 0.661 | Ratio of Ethanolamine Phospholipid Ratio to M01, 60-69 vs. 40-49, Female ([2]; human serum, females aged 60-69 vs. females aged 40-49): 0.793 | Ethanolamine Phospholipid Ratio to M01, Mean, Age Ctl, 70+_Female ([2]; human serum, females aged 70+): 0.814 | Ratio of Ethanolamine Phospholipid Ratio to M01, 70+ vs. 40-49, Female ([2]; human serum, females aged 70+ vs. females aged 40-49): 0.976 | Ratio of Ethanolamine Phospholipid Ratio to M01, 50-59 vs. 40-49, Male ([2]; human serum, males aged 50-59 vs. males aged 40-49): 1.300 | Ratio of Ethanolamine Phospholipid Ratio to M01, 60-69 vs. 40-49, Male ([2]; human serum, males aged 60-69 vs. males aged 40-49): 1.156 | Ratio of Ethanolamine Phospholipid Ratio to M01, 70+ vs. 40-49, Male ([2]; human serum, males aged 70+ vs. males aged 40-49): 1.319 | Ratio of ethanolamine phospholipid ratio to M01, ADAS 5-19 to CN, Female ([2]; serum, females, ADAS 5-19 vs cognitive normal): 0.811 | Ratio of ethanolamine phospholipid ratio to M01, ADAS 20-39 to 5-19, Female ([2]; serum, females, ADAS 20-39 vs ADAS 5-19): 0.925 | Ratio of ethanolamine phospholipid ratio to M01, ADAS 20-39 to CN, Female ([2]; serum, females, ADAS 20-39 vs cognitive normal): 0.750 | Ratio of ethanolamine phospholipid ratio to M01, ADAS 40-70 to 5-19, Female ([2]; serum, females, ADAS 40-70 vs ADAS 5-19): 0.791 | Ratio of ethanolamine phospholipid ratio to M01, ADAS 40-70 to 20-39, Female ([2]; serum, females, ADAS 40-70 vs ADAS 20-39): 0.856 | Ratio of ethanolamine phospholipid ratio to M01, ADAS 40-70 to CN, Female ([2]; serum, females, ADAS 40-70 vs cognitive normal): 0.642 | Ethanolamine phospholipid ratio to M01, Mean, SDAT, ADAS 5-19, Female ([2]; serum, females, SDAT ADAS 5-19): 0.724 | Ethanolamine phospholipid ratio to M01, Mean, SDAT, ADAS 20-39, Female ([2]; serum, females, SDAT ADAS 20-39): 0.669 | Ethanolamine phospholipid ratio to M01, Mean, SDAT, ADAS 40-70, Female ([2]; serum, females, SDAT ADAS 40-70): 0.573 | Ratio of ethanolamine phospholipid ratio to M01, AD, All to CN, Female ([2]; serum, females, all AD vs cognitive normal): 0.729 | Ethanolamine phospholipid ratio to M01, Mean, SDAT_all Female ([2]; serum, females, all SDAT): 0.651 | Ratio of ethanolamine phospholipid ratio to M01, Autopsy AD vs. Control, Female ([2]; serum, females, autopsy AD vs post mortem control): 0.697 | Ethanolamine phospholipid ratio to M01, Mean, Cognitive Normal, Female ([2]; serum, females, cognitive normal): 0.893 | Ethanolamine phospholipid ratio to M01, Mean, Post Mortem SDAT Female [2, 3]: 0.149 | Ethanolamine phospholipid ratio to M01, Mean, Post Mortem Ctl, Female [2, 4]: 0.214 | Ratio of ethanolamine phospholipid ratio to M01, ADAS 20-39 to 5-19, Male ([2]; serum, males, SDAT ADAS 20-39 vs ADAS 5-19): 0.840 | Ratio of ethanolamine phospholipid ratio to M01, ADAS 40-70 to 5-19, Male ([2]; serum, males, SDAT ADAS 40-70 vs ADAS 5-19): 0.699 | Ratio of ethanolamine phospholipid ratio to M01, ADAS 40-70 to 20-39, Male ([2]; serum, males, SDAT ADAS 40-70 vs ADAS 20-39): 0.832 | Ethanolamine phospholipid ratio to M01, Mean, Age Ctl, 30-39, Male ([2]; serum, males, age control 30-39): 0.649 | Ethanolamine phospholipid ratio to M01, Mean, Age Ctl, 40-49, Male ([2]; serum, males, age control 40-49): 0.606 | Ethanolamine phospholipid ratio to M01, Mean, Age Ctl, 50-59, Male ([2]; serum, males, age control 50-59): 0.787 | Ethanolamine phospholipid ratio to M01, Mean, Age Ctl, 60-69, Male ([2]; serum, males, age control 60-69): 0.700 | Ethanolamine phospholipid ratio to M01, Mean, Age Ctl, 70+_Male ([2]; serum, males, age control 70+): 0.799 | Ethanolamine phospholipid ratio to M01, Mean, Post Mortem SDAT Male ([2]; serum, males, post mortem SDAT): 0.142 | Ratio of ethanolamine phospholipid ratio to M01, SDAT vs Control (post mortem, males) ([2]; serum, males, post mortem SDAT vs post mortem control): 0.588 | Ethanolamine phospholipid ratio to M01, Mean, Post Mortem Ctl, Male ([2]; serum, males, post mortem control): 0.241
